# According to the supplement of paper PMC8728848:
# The list shows a part of the results.
# B1: LysMD3 (Homo sapiens), Q7Z3D4 (protein)
# chain: MAGRHQNRSFPLPGVQSSGQVHAFGNCSDSDILEEDAEVYELRSRGKEKVRRSTSRDRLDDIIVLTKDIQEGDTLNAIALQYCCTVADIKRVNNLISDQDFFALRSIKIPVKKFSSLTETLCPPKGRQTSRHSSVQYSSEQQEILPANDSLAYSDSAGSFLKEVDRDIEQIVKCTDNKRENLNEVVSALTAQQMRFEPDNKNTQRKDPYYGADWGIG
# What was measured:
# Assay in all cases: glycan array binding signal (z-score within array); higher = stronger binding
# Settings in all cases: glycan notation: IUPAC condensed, linker removed
# [1] = biological target: Gal(a1-3)Gal(b1-4)GlcNAc
# Outline: (§1)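 Columns mapping to the same glycan were averaged after glycan names were converted to IUPAC-condensed notation. The data come from 3228 arrays in the Consortium for Functional Glycomics database, limited to those with an available protein sequence. Binding is reported as a within-array Z-score averaged across arrays of one protein sequence and across linkers.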
# [2] = biological target: Gal(a1-3)Gal(b1-4)GlcNAc(b1-2)Man
# Outline: as §1
# [3] = biological target: Gal(a1-3)Gal(b1-4)GlcNAc(b1-2)Man(a1-3)[Gal(a1-3)Gal(b1-4)GlcNAc(b1-2)Man(a1-6)]Man(b1-4)GlcNAc(b1-4)GlcNAc
# Outline: as §1
# [4] = biological target: Gal(a1-3)Gal(b1-4)GlcNAc(b1-3)GalNAc
# Outline: as §1
# [5] = biological target: Gal(a1-3)Gal(b1-4)GlcNAc(b1-6)GalNAc
# Outline: as §1
# [6] = biological target: Gal(a1-3)Gal(b1-4)[Fuc(a1-3)]GlcNAc
# Outline: as §1
# [7] = biological target: Gal(a1-3)Gal(b1-4)[Fuc(a1-3)]GlcNAc(b1-2)Man(a1-3)[Gal(a1-3)Gal(b1-4)[Fuc(a1-3)]GlcNAc(b1-2)Man(a1-6)]Man(b1-4)GlcNAc(b1-4)GlcNAc
# Outline: as §1
# [8] = biological target: Gal(a1-3)GalNAc
# Outline: as §1
# [9] = biological target: Gal(a1-3)[Gal(a1-4)]Gal(b1-4)GlcNAc
# Outline: as §1
# [10] = biological target: Gal(a1-4)Gal(b1-3)GlcNAc(b1-2)Man(a1-3)[Gal(a1-4)Gal(b1-3)GlcNAc(b1-2)Man(a1-6)]Man(b1-4)GlcNAc(b1-4)GlcNAc
# Outline: as §1
# [11] = biological target: Gal(a1-4)Gal(b1-4)Glc
# Outline: as §1
# [12] = biological target: Gal(a1-4)Gal(b1-4)GlcNAc
# Outline: as §1
# [13] = biological target: Gal(a1-4)Gal(b1-4)GlcNAc(b1-2)Man(a1-3)[Gal(a1-4)Gal(b1-4)GlcNAc(b1-2)Man(a1-6)]Man(b1-4)GlcNAc(b1-4)GlcNAc
# Outline: as §1
# [14] = biological target: Gal(a1-4)Gal(b1-4)GlcNAc(b1-3)Gal(b1-4)Glc
# Outline: as §1
# [15] = biological target: Gal(a1-4)GlcNAc
# Outline: as §1
# [16] = biological target: Gal(a1-6)Glc
# Outline: as §1
# [17] = biological target: Gal(b1-2)Gal
# Outline: as §1
# [18] = biological target: Gal(b1-3)Gal
# Outline: as §1
# [19] = biological target: Gal(b1-3)Gal(b1-4)GlcNAc
# Outline: as §1
# [20] = biological target: Gal(b1-3)GalNAc
# Outline: as §1
# [21] = biological target: Gal(b1-3)GalNAc(a1-3)[Fuc(a1-2)]Gal(b1-4)Glc
# Outline: as §1
# [22] = biological target: Gal(b1-3)GalNAc(a1-3)[Fuc(a1-2)]Gal(b1-4)GlcNAc
# Outline: as §1
# [23] = biological target: Gal(b1-3)GalNAc(b1-3)Gal
# Outline: as §1
# [24] = biological target: Gal(b1-3)GalNAc(b1-3)Gal(a1-4)Gal(b1-4)Glc
# Outline: as §1
# [25] = biological target: Gal(b1-3)GalNAc(b1-4)Gal(b1-4)Glc
# Outline: as §1
# [26] = biological target: Gal(b1-3)GalNAc(b1-4)[Neu5Ac(a2-3)]Gal(b1-4)Glc
# Outline: as §1
# [27] = biological target: Gal(b1-3)GlcNAc
# Outline: as §1
# [28] = biological target: Gal(b1-3)GlcNAc(a1-3)Gal(b1-4)GlcNAc
# Outline: as §1
# [29] = biological target: Gal(b1-3)GlcNAc(a1-6)Gal(b1-4)GlcNAc
# Outline: as §1
# [30] = biological target: Gal(b1-3)GlcNAc(b1-2)Man
# Outline: as §1
# [31] = biological target: Gal(b1-3)GlcNAc(b1-2)Man(a1-3)[Gal(b1-3)GlcNAc(b1-2)Man(a1-6)]Man(b1-4)GlcNAc(b1-4)GlcNAc
# Outline: as §1
# [32] = biological target: Gal(b1-3)GlcNAc(b1-2)Man(a1-3)[Gal(b1-3)GlcNAc(b1-2)Man(a1-6)]Man(b1-4)GlcNAc(b1-4)[Fuc(a1-6)]GlcNAc
# Outline: as §1
# [33] = biological target: Gal(b1-3)GlcNAc(b1-2)Man(a1-3)[GlcNAc(b1-4)][Gal(b1-3)GlcNAc(b1-2)Man(a1-6)]Man(b1-4)GlcNAc(b1-4)GlcNAc
# Outline: as §1
# [34] = biological target: Gal(b1-3)GlcNAc(b1-2)[Gal(b1-3)GlcNAc(b1-6)]Man(a1-6)[Gal(b1-3)GlcNAc(b1-2)Man(a1-3)]Man(b1-4)GlcNAc(b1-4)GlcNAc
# Outline: as §1
# [35] = biological target: Gal(b1-3)GlcNAc(b1-3)Gal(b1-3)GlcNAc
# Outline: as §1
# [36] = biological target: Gal(b1-3)GlcNAc(b1-3)Gal(b1-4)Glc
# Outline: as §1
# [37] = biological target: Gal(b1-3)GlcNAc(b1-3)Gal(b1-4)GlcNAc
# Outline: as §1
# [38] = biological target: Gal(b1-3)GlcNAc(b1-3)Gal(b1-4)GlcNAc(b1-2)Man(a1-3)[Gal(b1-3)GlcNAc(b1-3)Gal(b1-4)GlcNAc(b1-2)Man(a1-6)]Man(b1-4)GlcNAc(b1-4)GlcNAc
# Outline: as §1
# [39] = biological target: Gal(b1-3)GlcNAc(b1-3)Gal(b1-4)GlcNAc(b1-2)[Gal(b1-3)GlcNAc(b1-3)Gal(b1-4)GlcNAc(b1-6)]Man(a1-6)[Gal(b1-3)GlcNAc(b1-3)Gal(b1-4)GlcNAc(b1-2)Man(a1-3)]Man(b1-4)GlcNAc(b1-4)[Fuc(a1-6)]GlcNAc
# Outline: as §1
# [40] = biological target: Gal(b1-3)GlcNAc(b1-3)Gal(b1-4)GlcNAc(b1-3)Gal(b1-4)GlcNAc(b1-2)[Gal(b1-3)GlcNAc(b1-3)Gal(b1-4)GlcNAc(b1-3)Gal(b1-4)GlcNAc(b1-6)]Man(a1-6)[Gal(b1-3)GlcNAc(b1-3)Gal(b1-4)GlcNAc(b1-3)Gal(b1-4)GlcNAc(b1-2)Man(a1-3)]Man(b1-4)GlcNAc(b1-4)[Fuc(a1-6)]GlcNAc
# Outline: as §1
# [41] = biological target: Gal(b1-3)GlcNAc(b1-3)Gal(b1-4)GlcNAc(b1-6)[Gal(b1-3)GlcNAc(b1-3)]Gal(b1-4)Glc
# Outline: as §1
# [42] = biological target: Gal(b1-3)GlcNAc(b1-3)Gal(b1-4)[Fuc(a1-3)]GlcNAc
# Outline: as §1
# [43] = biological target: Gal(b1-3)GlcNAc(b1-3)Gal(b1-4)[Fuc(a1-3)]GlcNAc(b1-6)[Gal(b1-3)GlcNAc(b1-3)]Gal(b1-4)Glc
# Outline: as §1
# [44] = biological target: Gal(b1-3)GlcNAc(b1-3)GalNAc
# Outline: as §1
# [45] = biological target: Gal(b1-3)GlcNAc(b1-6)Gal(b1-4)GlcNAc
# Outline: as §1
binder,measurement,setting,value
B1,glycan array binding signal (z-score),[1],0.832
same,glycan array binding signal (z-score),[2],-0.21
same,glycan array binding signal (z-score),[3],0.026
same,glycan array binding signal (z-score),[4],-1.23
same,glycan array binding signal (z-score),[5],-0.489
same,glycan array binding signal (z-score),[6],0.873
same,glycan array binding signal (z-score),[7],-0.767
same,glycan array binding signal (z-score),[8],-0.129
same,glycan array binding signal (z-score),[9],0.649
same,glycan array binding signal (z-score),[10],-0.741
same,glycan array binding signal (z-score),[11],-0.441
same,glycan array binding signal (z-score),[12],0.938
same,glycan array binding signal (z-score),[13],0.66
same,glycan array binding signal (z-score),[14],-0.099
same,glycan array binding signal (z-score),[15],0.113
same,glycan array binding signal (z-score),[16],-0.604
same,glycan array binding signal (z-score),[17],0.006
same,glycan array binding signal (z-score),[18],0.706
same,glycan array binding signal (z-score),[19],-0.097
same,glycan array binding signal (z-score),[20],0.117
same,glycan array binding signal (z-score),[21],-0.337
same,glycan array binding signal (z-score),[22],-0.452
same,glycan array binding signal (z-score),[23],0.183
same,glycan array binding signal (z-score),[24],0.313
same,glycan array binding signal (z-score),[25],0.058
same,glycan array binding signal (z-score),[26],0.659
same,glycan array binding signal (z-score),[27],0.409
same,glycan array binding signal (z-score),[28],-0.284
same,glycan array binding signal (z-score),[29],0.772
same,glycan array binding signal (z-score),[30],1.23
same,glycan array binding signal (z-score),[31],-1.19
same,glycan array binding signal (z-score),[32],-0.083
same,glycan array binding signal (z-score),[33],-0.659
same,glycan array binding signal (z-score),[34],0.88
same,glycan array binding signal (z-score),[35],-0.195
same,glycan array binding signal (z-score),[36],0.856
same,glycan array binding signal (z-score),[37],-0.113
same,glycan array binding signal (z-score),[38],-0.246
same,glycan array binding signal (z-score),[39],-0.134
same,glycan array binding signal (z-score),[40],-0.255
same,glycan array binding signal (z-score),[41],-0.798
same,glycan array binding signal (z-score),[42],2.15
same,glycan array binding signal (z-score),[43],-0.547
same,glycan array binding signal (z-score),[44],-0.895
same,glycan array binding signal (z-score),[45],1.65

# Part of the list above, with bars between the fields.
binder | measurement | setting | value
B1 | glycan array binding signal (z-score) | [17] | 0.006
same | glycan array binding signal (z-score) | [18] | 0.706
same | glycan array binding signal (z-score) | [19] | -0.097
same | glycan array binding signal (z-score) | [26] | 0.659
